{
  "source": "patent US20260015677",
  "test_system": "AscI",
  "test": "enzyme reaction in vitro",
  "settings": "CutSmart, 37 C, purified recombinant protein, protein details: NEB R0558S",
  "note": "Construct, isoform or probe ends are uncertain for at least one entry. Negatives hold for the conditions tested.",
  "data": [
    {"sequence": "CCGGTAGGGGCCCATTATAGCCGAATTCGGCGCGCCAGGTGGCACTTTTCGGGGAAATGTGCGCGGAACCCCTATTTGTTTATTTTTCTAAATACATTCAAATATGTATCCGCTCATGAGACAATAACCCTGATAAATGC (double strand) [hemimethylated AscI substrate 195 bp]", "values": [
      {"measurement": "activity on this sequence", "setting": "5mC at first C of AscI site (GG[5mC]GCGCC) on top strand from primer SEQ:6, cleaved to 135 and 60 bp", "value": "active"}
    ]},
    {"sequence": "CCGGTAGGGGCCCATTATAGCCGAATTCGGCGCGCCAGGTGGCACTTTTCGGGGAAATGTGCGCGGAACCCCTATTTGTTTATTTTTCTAAATACATTCAAATATGTATCCGCTCATGAGACAATAACCCTGATAAATGC (double strand) [symmetrically methylated AscI substrate 195 bp]", "values": [
      {"measurement": "activity on this sequence", "setting": "5mC in AscI site on both strands, made by DNMT5, not cleaved after DNMT5 methylation, variant of hemimethylated AscI substrate 195 bp", "value": "not active"}
    ]}
  ]
}
